Values of other authors as cited in patent publication US20250049968A1, “THERAPEUTIC AND IMAGING AGENTS FOR TARGETING MYOCARDIAL TISSUE” (The Board of Regents of the University of Oklahoma, priority 2023, published 2025).
The name of at least one read-out is uncertain.

Conditions: clinical PK profile; cited from earlier work

## COC(=O)N1CCN(Cc2cccc(NC(=O)Nc3ccc(C)nc3)c2F)CC1 [OM, omecamtiv mecarbil]
  median time (tmax) of maximum observed plasma concentration (Cmax): 2 h
